According to PubChem BioAssay AID1347076 (National Center for Advancing Translational Sciences (NCATS), 2019):
Among all 400,000 compounds or so, about 13,000 (3.2%) were called active. Inconclusive means that the source gave no clear call. Such entries were picked first, then a sample of the others. The call rests on the fitted dose curve; in most records, active means well fitted cell-killing curve with a large enough effect; inconclusive means small, poorly fitted or top-dose-only effect, or effect the other way; inactive means flat fitted curve, though single readings scatter. Where the call is inconclusive, the potency comes from a doubtful curve fit.

Assay: qHTS assay for MDR1-selective chemotherapeutics: Primary screen using the drug-selected MDR subline cells KB-V1; further: nearly all actives have a fitted effect of over 60% in size
Settings: KB-V1 MDR cells viability, CellTiter-Glo, 72 h; activity change, negative = cytotoxicity: at 46.1 µM (top of the series)
In short: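 Luminescent ATP read-out (CellTiter-Glo, 10 min) measures survival of drug-selected KB-V1 MDR cells after 72 h, 37 degrees C compound exposure. Medium: phenol-red-free DMEM, 10% FBS. Values from fitted concentration-response curves.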
On the % scale 0 is the no-effect control and ±100 the full control effect; potency means the concentration at half of the fitted maximal effect.

Compound | Potency | activity change, negative = cytotoxicity
OCCCNc1nccc(-c2cc(Nc3cccc(Cl)c3)ncn2)n1 | inconclusive: 1.16 µM [cytotoxic, full curve] | 
O=C(CN(Cc1ccc(F)cc1)C(=O)CNS(=O)(=O)c1ccc(Cl)cc1)NCC1CCCO1 (configuration not stated) |  | inactive: 3.86%
Cc1ccc(-n2nnnc2SCn2nnc3ccccc3c2=O)c(C)c1 | inconclusive: 23.1 µM [cytotoxic, partial curve, poor fit] | 
COc1ccc(NC(=O)c2cnc3cc(C)ccn3c2=O)c(OC)c1 | inconclusive: 11.6 µM [rising, partial curve] | 
O=C(CSc1nc2c(sc3ccccc32)c(=O)n1CCc1ccccc1)NCc1ccco1 | active: 2.06 µM | 
CN(CC(=O)Nc1ccc(Cl)c(C(F)(F)F)c1)C(=O)c1ccc(N2CCOCC2)c([N+](=O)[O-])c1 |  | inactive: -1.45%
Cc1c(C(=O)NCC2CCCO2)cccc1[N+](=O)[O-] (configuration not stated) | inconclusive: 29.1 µM [rising, single point] | 
CNc1ccc(Br)cc(C(=O)/C=C/c2cccc(Cl)c2Cl)c1=O | inconclusive: 18.4 µM [cytotoxic, single point] | 
COc1ccc(Nc2c3c(nc4c(-c5ccccc5)c(C)nn24)CCC3)cc1 |  | inactive: -6.37%
O=C(Nc1cccc(C(F)(F)F)c1)c1csc([C@H]2C[C@H](O)[C@@H](CO)O2)n1 |  | inactive: 0.185%
O=C(Cn1c(=O)n(-c2ccccc2)c(=O)c2c3c(sc21)CCC3)c1ccc(Br)cc1 |  | inactive: 5.31%
Cc1ccccc1C(=O)NNC(=O)c1cccc(Br)c1 |  | inactive: 0.7%
COc1ccccc1NC(=O)COc1ccc(/C=N/NC(=O)CSCc2ccc(Cl)cc2)cc1 | active: 5.17 µM | 
COC(=O)[C@@H](NC(=O)c1ccc(OC2CCN(Cc3ccccn3)CC2)cc1)C(C)C | inconclusive: 29.1 µM [rising, single point] | 
CCOC(=O)c1c(C)oc2ccc(N(C(=O)c3ccncc3)S(=O)(=O)c3ccc(F)cc3C)cc12 | inconclusive: 8.2 µM [cytotoxic, partial curve] | 
Cn1cccc1CC(=O)NNC(=S)NC(=O)c1ccc(F)cc1 |  | inactive: -1.95%
O=C(NC1CCOCC1)C1CCC(=O)N(Cc2cccc(C(F)(F)F)c2)C1 (configuration not stated) | inconclusive: 20.6 µM [rising, single point] | 
O=C(CN(Cc1ccccc1)S(=O)(=O)c1cccc(C(F)(F)F)c1)NC1CCCCC1 | active: 3.66 µM | 
Cc1cccc(CS(=O)(=O)Cc2ccc(C(=O)NCc3ccc(F)cc3)o2)c1 |  | inactive: 1.2%
CCOC(=O)[C@]12CCCC=C1N(CCC1=CCCCC1)C(=O)[C@H](CC(=O)NCc1ccccc1)C2 | inconclusive: 6.51 µM [cytotoxic, partial curve] | 
CC1=C/C(=C/N(C)C)C(=O)O1 |  | inactive: -22.6%
O=C1CNc2cc(Cl)ccc2N1 | inconclusive: 16.4 µM [cytotoxic, single point] | 
CC1(C(=O)NS(=O)(=O)c2cccc(Cl)c2)CCN1C(=O)C1(c2ccccc2)CC1 (configuration not stated) |  | inactive: -5.85%
CCOc1cc(S(=O)(=O)NC2CC2)c(OCC)cc1-n1cnnn1 | active: 14.6 µM | 

Looked up above.
For activity change, negative = cytotoxicity, O=C(Nc1cccc(C(F)(F)F)c1)c1csc([C@H]2C[C@H](O)[C@@H](CO)O2)n1 is entered as inactive: 0.185%
For activity change, negative = cytotoxicity, CC1(C(=O)NS(=O)(=O)c2cccc(Cl)c2)CCN1C(=O)C1(c2ccccc2)CC1 (configuration not stated) is entered as inactive: -5.85%

More results follow:

Compound | Potency | activity change, negative = cytotoxicity
Cc1ccc(S(=O)(=O)N(CC(=O)N2CCc3ccccc3C2)c2ccc(Cl)c(Cl)c2)cc1 | inconclusive: 4.11 µM [cytotoxic, partial curve, poor fit] | 
COc1ccc(C2(c3ccc(OC)cc3)NC(=O)N(CC(=O)NC3(C#N)CCCCC3)C2=O)cc1 | inconclusive: 32.6 µM [rising, partial curve, poor fit] | 
CC1(C)OC(=O)C(=NNc2ccccc2C(=O)O)C(=O)O1 |  | inconclusive: -19.2%
Clc1ccc2[nH]c3c(N4CCC5(CC4)OCCO5)ncnc3c2c1 | active: 16.4 µM | 
CCc1cc(=O)oc2cc(C)cc(OCC(=O)NCCc3c[nH]c4ccccc34)c12 | inconclusive: 29.1 µM [cytotoxic, single point] | 
CCN(C(=O)c1cc2c(=O)oc3ccccc3c2s1)c1ccccc1F |  | inactive: 14.9%
CCCCc1nc2cc(C(=O)NCCc3c(C)n[nH]c3C)ccc2o1 | inconclusive: 29.1 µM [cytotoxic, single point] | 
Cc1cc([N+](=O)[O-])ccc1N=Nc1c(N)[nH]n(-c2ccccc2)c1=O |  | inactive: -14.3%
Cc1cccnc1N(C(=O)Nc1ccccc1)C1=NCC(C)(C)S1 |  | inactive: -9.07%
CCN(C(=O)CSc1ncnc2c1cnn2-c1ccccc1)C1CCS(=O)(=O)C1 (configuration not stated) | inconclusive: 13 µM [cytotoxic, single point] | 
COc1ccc(N(C)C(=O)c2cc3c(s2)-c2ccccc2S(=O)(=O)C3)cc1 |  | inconclusive: -40.2% [cytotoxic]
CC(=O)NC(c1cccc(F)c1)c1nc(-c2cnc3ccccc3c2)cs1 (configuration not stated) |  | inactive: -2.03%
O=C(C1=C[C@@H](c2csc3ccccc23)C[C@@H](OCc2ccc(CO)cc2)O1)N1CCN(Cc2ccc3c(c2)OCO3)CC1 | inconclusive: 25.9 µM [cytotoxic, single point] | 
COc1ccc(S(=O)(=O)NCc2ccncc2)cc1NC(=O)c1ccccc1 |  | inactive: -9.25%
COc1ccccc1Cn1c(C2CC(=O)N(c3ccccc3OC)C2)nc2ccccc21 (configuration not stated) |  | inactive: 3.61%
CN(C)S(=O)(=O)c1cccc(NC(=O)COc2ccccc2C(=O)Nc2ccccc2)c1 | active: 16.4 µM | 
Clc1ccc(C(c2nnnn2CCc2ccccc2)N2CCSCC2)cc1 (configuration not stated) | inconclusive: 16.4 µM [cytotoxic, partial curve] | 
COc1cccc(-c2c(-c3cc(OC)cc(OC)c3)n(C)c3ccc(-c4cnc(OC)nc4)cc23)c1 |  | inconclusive: -43% [cytotoxic]
Cc1ccccc1CSCC(=O)c1c(N)n(C)c(=O)n(C)c1=O |  | inactive: -19.5%
CCOC(=O)c1c(-c2ccccc2)oc2ccc(NS(=O)(=O)c3ccc(C)cc3)cc12 | inconclusive: 18.4 µM [cytotoxic, single point] | 
O=C(N/N=C/c1ccccn1)c1cc(-c2cccc3ccccc23)n[nH]1 |  | inactive: 20.7%
CCc1ccc2occ(CC(=O)Nc3c(C(=O)c4ccccc4)oc4ccccc34)c2c1 |  | inactive: 3.58%
CCOC(=O)c1c(C)[nH]c(=S)c(C#N)c1-c1ccccc1 | inconclusive: 10.3 µM [rising, partial curve] | 
